Results from US20060110777A1 (Genentech, published 2006).
No constants are given. Whether binding was seen depends on the method and setting. Some results given as binding are weak or reduced against the parent protein; the word gives no strength.

Amino acid sequences for entries named in this document (tags omitted). Residues count along the entry.
UniProt Q9Y275, residues 134-285: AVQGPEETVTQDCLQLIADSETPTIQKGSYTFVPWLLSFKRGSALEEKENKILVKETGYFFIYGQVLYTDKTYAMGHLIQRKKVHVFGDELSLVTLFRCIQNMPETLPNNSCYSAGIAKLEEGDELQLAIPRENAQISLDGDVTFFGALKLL

Molecular target: T1, BAFF (UniProt Q9Y275 134-285, limits assumed)
T1 construct: Coated on ELISA plates at 2 ug/ml; The construct is not described; also called BLyS; TALL-1
Assay: competitive displacement ELISA, BAFF coated, biotinylated miniBR3 as tracer
Experimental: FIGS. 16A-16B depict binding of BR3 variants to BAFF. (A) Competitive displacement of biotinylated miniBR3 measured by ELISA (see methods). Data are shown for BR3 extracellular domain (filled triangles), miniBR3 (open squares), and bhpBR3 (filled circles). IC₅₀ values from the fitted curves are 70 nM, 65 nM, and 15 μM, respectively. (B) HeLa cells expressing a chimeric receptor composed of the extracellular ligand-binding domain of BR3 fused to the death domain of DR4 were seeded 16 hr before treatment. BAFF (2 nM) was added to cells alone or after being preincubated with miniBR3 (3 μM), bhpBR3 (100 μM) or a control hairpin peptide with an unrelated turn sequence in the same bhp scaffold (bhpC, 100 μM) for 30 min at room temperature. Apoptosis was assessed 24 hr later. […]
Nunc Maxisorp 96-well plates were coated overnight at 4° C. with 100 μl of a 2 μg/ml solution of BAFF in carbonate buffer, pH 9.6. […] The reaction was quenched with 100 μl/well 1M H₃PO₄ and the plate read at 490 nm. IC₅₀ values were determined by a four-parameter fit of the competitive displacement ELISA signal. The concentrations of initial stock solutions of bhpBR3 were determined spectrophotometrically as described (Gill and von Hippel, (1989) Anal. Biochem. 182:319-326), while those of miniBR3 and BR3 extracellular domain were determined by quantitative amino acid analysis.

CHWDLLVRHWVC (C-terminal amide; cyclic disulfide between the two cysteines) [bhpBR3] was tested, and the binding was “binds”.
